PMC4422687

Experiments:
Assay in all cases: flow cytometry on cells; H variants on receptor-negative Vero cells, 1 h at 4°C with concentrated soluble HA-tagged SLAM supernatant (1:20), no mAb before; anti-HA MFI normalised to anti-FLAG MFI and to H-wt (100%)
[1] = target: CDV H mutant P127A (canine distemper virus, strain A75/17)
[2] = target: H-short (-11), CDV H with stalk residues 125-135 deleted (canine distemper virus, strain A75/17)
[3] = target: CDV H mutant W138A (canine distemper virus, strain A75/17)

Measured: binding

B1: soluble HA-tagged canine SLAM (receptor, UniProt Q95MM9 27-237)
chain: ESLMNCPEVPGKLGSSLQLSLASEGISKRMNKSIHILVTRAESPGNSIKKKIVSLDLPEGGSPRYLENGYKFHLENLTLRILESRRENEGWYFMTLEENFSVQHFCLQLKLYEQVSTPEIKVLNWTQENGNCSMMLACEVEKGDNVVYSWSEKLGIDPLIPANSSHLLHLSLGPQHVNNVYVCTVSNPVSNRSWSFNPWSKCRPESSVPRQ
binds: all assays above

No constants are given. Whether binding was seen depends on the method and setting. A result given as binding can be weak or reduced; the word gives no strength. Sequences can lack the tags named with a protein.
